Measured values from patent publication EP0589069A1, “Hydroquinone derivatives and antioxidants and tumor inhibitors containing them” (NIPPON HYPOX LABORATORIES INCORPORATED, priority 1992, dated 1994).
At least one compound was matched to its structure with a doubt left.

System: lipid of rat liver microsome
Assay: Inhibition activity against hyperoxidation of lipid of rat liver microsome (thiobarbituric acid method)
Type: biochemical
Conditions: NADPH/ADP/FeCl₃, 37°C
Description: [Inhibition activity against hyperoxidation of lipid of rat liver microsome]
A plurality of male SD rats (weighing […]) were prepared. Each rat was anesthetized with pentobarbital, and then subjected to celiotomy. A cannula was introduced into the portal vein of each rat, the abdominal large veins were sectioned, and 500 ml of cold 0.9 % NaCl was injected into the portal veins.
Livers were extracted from individual rats, and the livers were cut to pieces in 1.15 % KCl and homogenized with ice cooling. Then, 1.15 % KCl was further added to obtain a 30 % liver homogenized solution.
The above homogenized solution was centrifugally separated at 8,000 g (g: gravitation acceleration) for 10 minutes, and the resultant supernatant was recovered. […]
The reaction mixture was centrifugally separated at 2,000 rpm for 10 minutes, and the resultant supernatant was measured for an absorbance at 532 nm to determine a thiobarbituric acid reaction amount. And, on the basis of a calibration curve of […] (MDA) amount prepared by using 1,1,3,3-tetramethoxypropane, a peroxidized lipid amount was determined as an amount of formed MDA. […]
The inhibition ratio of the lipid peroxidation reaction was calculated on the basis of the following equation. […] OD₁: Absorbance when test compound is added. OD₂: Absorbance of Control OD₃: Absorbance of Blank

SMILES: Cc1cc(C(C)(C)C)c(O)c(C(C)(C)C)c1 [BHT, Butylhydroxytoluene, reference compound]
- Inhibition ratio of lipid peroxidation (%) (test compound concentration 10⁻⁵M): 100.0%
- Inhibition ratio of lipid peroxidation (%) (test compound concentration 10⁻⁶M): 14.0%
